Several values for one entry are separate records, joined by “and”; a condition that tells them apart may be missing. Equal entries are not always repeated. Structures can show the parent of a compound that is named as a salt. ± gives the standard deviation of the averaged measurements. The list shows a part of the results. Single values are uncertain, as repeats are few or missing.

For this test, the system named is RAW 264.7. Briefly: cell viability (MTT) relative to vehicle control; higher = more viable cells. The following applies: stimulus: HMGB1 5 ug/ml, 18 h.
The mark [1] stands for this setting: compound concentration: 1 ug/ml.

For the compound `CP(=O)(O)C1=CCNCC1`, the cell viability (in general, a read-out of living cells in per cent, often relative to untreated cells) (compound concentration: 3 uM) stood at 114%.

Consider `C[C@@H]1O[C@H](C[N+](C)(C)C)C[C@H]1O` (racemic) [(±)-Muscarine chloride], for which the cell viability (compound concentration: 3 uM) is 116%.

As for `O=c1cccc2n1CC1CC2CN(CCCN=C=S)C1` (configuration not stated), the cell viability under setting [1] came out at 89.7%.

On to `NC(=O)c1cc(N2CC2)c([N+](=O)[O-])cc1[N+](=O)[O-]`, for which the cell viability (compound concentration: 3 uM) was 92.4%.

As to `O=c1cccc2n1CC1CC2CN(c2nc(N3CCCC3)nc(N3CCCC3)n2)C1` (configuration not stated), under setting [1], the cell viability turned out to be 90.9%.

For the compound `NC(=O)CI` [Iodoacetamide], the cell viability (compound concentration: 3 uM) worked out at 97.7%.

Consider `C[C@]12CCC(=O)C=C1C=C[C@@H]1[C@@H]2CC[C@@]2(C)[C@H]1CC[C@@]2(O)CCC(=O)O` [Canrenoic acid potassium salt], for which the cell viability (compound concentration: 3 uM) was 90.3%.

With `C[C@]12CCC(=O)C=C1C=C[C@@H]1[C@@H]2CC[C@@]2(C)[C@H]1CC[C@@]2(O)CCC(=O)O`, the cell viability (compound concentration: 3 uM) was 102%.

For the compound `C(#CCN1CCCC1)CN1CCCC1` [Tremorine dihydrochloride], the cell viability (compound concentration: 3 uM) is 83.5%.

On to `CC[C@@H](C(=O)[C@@H](C)[C@@H](O)[C@H](C)[C@@H]1O[C@@H]([C@@H](CC)C(=O)O)CC[C@@H]1C)[C@H]1O[C@]2(C=C[C@@H](O)[C@]3(CC[C@@](C)([C@H]4CC[C@](O)(CC)[C@H](C)O4)O3)O2)[C@H](C)C[C@@H]1C`, for which, where the note is “compound concentration: 3 uM”, the cell viability was 73.5%.

As for `COc1ccc2[nH]c3c(c2c1)CCNC3` [6-Methoxy-1,2,3,4-tetrahydro-9H-pyrido[3,4b] indole], the cell viability (compound concentration: 3 uM) stood at 107%.

As for `CS(=O)(=O)Nc1ccc(Cc2noc(-c3ccc4[nH]cc(CCN)c4c3)n2)cc1`, for the setting “compound concentration: 3 uM”, the cell viability is 101%.

On to `Cc1cccc(C)c1NC(=O)CN1CCCC1=O` [Nefiracetam], for which the cell viability (compound concentration: 3 uM) was 97.3%.

In the case of `CN1CC[C@]2(CCN3CCc4c(oc5ccccc45)[C@@H]3C2)N(C)C1=O`, under “compound concentration: 3 uM”, the cell viability came to 98.6%.

Turning to `CC(C)[C@H]1C(=O)N2CCC[C@H]2[C@]2(O)O[C@](NC(=O)[C@@H]3C=C4c5cccc6[nH]cc(c56)C[C@H]4N(C)C3)(C(C)C)C(=O)N12` [Ergocornine], the cell viability under setting [1] came to 99%.

`N#CC(C#N)=Cc1ccc(O)c(O)c1` [Tyrphostin 23]: the cell viability (compound concentration: 3 uM) came out at 109%.

As to `CC(=O)N1C[C@@H]2C[C@H](C1)c1cccc(=O)n1C2`, the cell viability under setting [1] worked out at 93.5%.

`S=C=NCc1ccccc1`: the cell viability (compound concentration: 3 uM) came to 78.6 ± 15%.

Regarding `COP(=O)(OC)OC=C(Cl)Cl`, the cell viability (compound concentration: 3 uM) was 103 ± 12%.

Turning to `c1ccc2c(c1)Nc1ccccc1S2`, where the note is “compound concentration: 3 uM”, the cell viability stood at 102%.

With `C[C@]12CC[C@H]3[C@@H](CCC4=CC(=O)CC[C@@]43C)[C@@H]1CC[C@@H]2O`, the cell viability (compound concentration: 3 uM) came to 117%.

For the compound `C[C@]12CC[C@H]3[C@@H](CCC4=CC(=O)CC[C@@]43C)[C@@H]1CC[C@@H]2O` [Testosterone], the cell viability (compound concentration: 3 uM) was found to be 101%.

Turning to `N=C(NCCC[C@H](N)C(=O)O)N[N+](=O)[O-]` [NG-Nitro-L-arginine], the cell viability (compound concentration: 3 uM) was 116%.

For the compound `Cc1ccc(/N=C/N(C)/C=N/c2ccc(C)cc2C)c(C)c1`, the cell viability (compound concentration: 3 uM) amounted to 102%.

Turning to `CCCN(CCC)C1Cc2cc(OC)c(OC)cc2C1`, the cell viability (compound concentration: 3 uM) was 118%.

With `O=c1c2ccccc2[se]n1-c1ccccc1`, the cell viability (compound concentration: 3 uM) was 105 ± 2.7%.

Consider `O=c1c2ccccc2[se]n1-c1ccccc1` [Ebselen], for which the cell viability (compound concentration: 3 uM) was found to be 110 ± 2.5%.

`CC(C)NC(C)Cc1ccc(I)cc1` (configuration not stated) [Iofetamine hydrochloride]: the cell viability (compound concentration: 3 uM) turned out to be 94%.

On to `Nc1ncnc2c1ncn2[C@@H]1O[C@H](CI)[C@@H](O)[C@H]1O` [5'-Iodo-5'-deoxyadenosine], for which the cell viability under setting [1] was determined as 91.4%.

As for `COc1cc2c(cc1O)C[C@H]1c3c(cc(OC)c(O)c3-2)CCN1C` [Isoboldine], the cell viability under setting [1] turned out to be 98.4%.

On to `O=c1ccc2cc(O[C@@H]3O[C@H](CO)[C@@H](O)[C@H](O)[C@H]3O)c(O)cc2o1` [Esculin], for which the cell viability under setting [1] was determined as 76.7%.

Regarding `O=C1c2ccccc2-c2cccc3cccc1c23`, for the setting “compound concentration: 3 uM”, the cell viability worked out at 87.3%.

With `NCC(O)c1ccc(O)cc1` (configuration not stated), the cell viability (compound concentration: 3 uM) came out at 108%.

As for `COC(=O)N1CCN(C(=O)Cc2ccc(Cl)c(Cl)c2)C(CN2CCCC2)C1` (configuration not stated), for the setting “compound concentration: 3 uM”, the cell viability was 96.3% and 106%.

Turning to `CN1Cc2c(ccc3c2OCO3)[C@@H]2[C@H]1c1cc3c(cc1C[C@@H]2O)OCO3` [(+)-Chelidonine monohydrate], the cell viability under setting [1] came to 62.8%.

`CN1CCc2cccc(Cl)c2CC1`: the cell viability (compound concentration: 3 uM) amounted to 119%.

`COC(=O)[C@@H](N)CCCNC(=N)N[N+](=O)[O-]` [NG-Nitro-L-arginine methyl ester hydrochloride]: the cell viability (compound concentration: 3 uM) was 109%.

Regarding `CN[C@@H](C)[C@H](O)c1ccccc1` [Ephedrine], the cell viability under setting [1] is 93.2%.

Turning to `CC[C@]1(O)CC[C@H]2[C@@H]3CCC4=CCCC[C@@H]4[C@H]3CC[C@@]21C` [Ethylestrenol], the cell viability (compound concentration: 3 uM) came to 98.4%.

With `CC(=O)O[C@H]1C[C@@H]2CC[C@@H]3[C@H](CC[C@@]4(C)[C@H]3C[C@H]([N+]3(C)CCCCC3)[C@@H]4OC(C)=O)[C@@]2(C)C[C@@H]1[N+]1(C)CCCCC1`, the cell viability (compound concentration: 3 uM) is 106%.

Consider `CC(=O)O[C@H]1C[C@@H]2CC[C@@H]3[C@H](CC[C@@]4(C)[C@H]3C[C@H]([N+]3(C)CCCCC3)[C@@H]4OC(C)=O)[C@@]2(C)C[C@@H]1[N+]1(C)CCCCC1` [Pancuronium bromide], for which the cell viability (compound concentration: 3 uM) worked out at 86.2 ± 19%.

As for `CC(=O)O[C@H]1C[C@@H]2CC[C@@H]3[C@H](CC[C@@]4(C)[C@H]3C[C@H]([N+]3(C)CCCCC3)[C@@H]4OC(C)=O)[C@@]2(C)C[C@@H]1[N+]1(C)CCCCC1` [Pancuronium], the cell viability (compound concentration: 3 uM) is 98.3 ± 5.5%.

The values above are taken from the supplement of paper PMC3682954.
